{"source": "PubChem BioAssay AID686938, Drosophila RNAi Screening Center – 2013", "purpose": "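Knock-downs reducing store-operated calcium influx in Drosophila cells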 (primary screen)", "cells": "Drosophila S2R+ cells", "knock-down reagent": "long dsRNA against Drosophila genes, about 0.25 µg dsRNA per well, roughly 10,000 cells", "timing": "5 days of knock-down before the calcium assay", "treatment": "thapsigargin (SERCA pump blocker) to empty calcium stores; entry signal taken 4 min after adding it", "measured": "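Duplicate raw fluo-4 intensities per well from a plate reader, at rest and four minutes after thapsigargin emptied calcium stores; entry-to-rest ratio filled for only some wells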", "direction": "calcium entry signal: higher = stronger calcium signal after store depletion; resting calcium signal: higher = higher resting calcium signal", "units": "calcium entry signal in fluorescence units; resting calcium signal in fluorescence units", "call rule": "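Called when the plate z-score of the entry-to-rest ratio, mean of duplicates, falls below −3; wells with low overall dye signal (Fmax z below −2) or more than five off-targets excluded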", "calls": "active = strongly reduced calcium entry; inactive = no strong reduction", "note": "The deposit covers about 23,000 reagents; below is an unselected part of those that have a named target and a result. Over the whole deposit, 75 (0.33%) were called active. 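Raw plate signals without normalisation; calls rest on plate z-scores that were not deposited; ratio present for only 364 wells.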 A number with no mark means an inactive call. Reagent sequences are not shown. The record does not give: the dose of the treatment."}
{"gene knocked down": "Vhl", "DRSC id": "DRSC07716", "calcium entry signal, replicate 1": 2.39e7, "calcium entry signal, replicate 2": 3.24e7, "resting calcium signal, replicate 1": 1.32e7, "resting calcium signal, replicate 2": 1.50e7}
{"gene knocked down": "CG32281", "DRSC id": "DRSC08236", "calcium entry signal, replicate 1": 4.01e7, "calcium entry signal, replicate 2": 2.51e7, "resting calcium signal, replicate 1": 2.83e7, "resting calcium signal, replicate 2": 1.10e7}
{"gene knocked down": "udt", "DRSC id": "DRSC14214", "calcium entry signal, replicate 1": 4.57e7, "calcium entry signal, replicate 2": 2.98e7, "resting calcium signal, replicate 1": 2.15e7, "resting calcium signal, replicate 2": 1.38e7}
{"gene knocked down": "CG8321", "DRSC id": "DRSC07148", "calcium entry signal, replicate 1": 3.46e7, "calcium entry signal, replicate 2": 3.64e7, "resting calcium signal, replicate 1": 1.41e7, "resting calcium signal, replicate 2": 1.63e7}
{"gene knocked down": "Cul6", "DRSC id": "DRSC09830", "calcium entry signal, replicate 1": 5.10e7, "calcium entry signal, replicate 2": 3.07e7, "resting calcium signal, replicate 1": 3.41e7, "resting calcium signal, replicate 2": 1.50e7}
{"gene knocked down": "Cap-G", "DRSC id": "DRSC06652", "calcium entry signal, replicate 1": 2.30e7, "calcium entry signal, replicate 2": 3.38e7, "resting calcium signal, replicate 1": 1.17e7, "resting calcium signal, replicate 2": 1.59e7}
{"gene knocked down": "Cap-G", "DRSC id": "DRSC06653", "calcium entry signal, replicate 1": 2.49e7, "calcium entry signal, replicate 2": 3.13e7, "resting calcium signal, replicate 1": 1.21e7, "resting calcium signal, replicate 2": 1.32e7}
{"gene knocked down": "Cap-G", "DRSC id": "DRSC21805", "calcium entry signal, replicate 1": 3.55e7, "calcium entry signal, replicate 2": 2.77e7, "resting calcium signal, replicate 1": 2.12e7, "resting calcium signal, replicate 2": 1.91e7}
{"gene knocked down": "CG15517", "DRSC id": "DRSC15056", "calcium entry signal, replicate 1": 4.92e7, "calcium entry signal, replicate 2": 6.44e7, "resting calcium signal, replicate 1": 2.36e7, "resting calcium signal, replicate 2": 2.64e7}
{"gene knocked down": "CCT7", "DRSC id": "DRSC16410", "calcium entry signal, replicate 1": 3.58e7, "calcium entry signal, replicate 2": 2.22e7, "resting calcium signal, replicate 1": 1.95e7, "resting calcium signal, replicate 2": 1.29e7}
{"gene knocked down": "qm", "DRSC id": "DRSC11386", "calcium entry signal, replicate 1": 2.54e7, "calcium entry signal, replicate 2": 8.07e7, "resting calcium signal, replicate 1": 1.20e7, "resting calcium signal, replicate 2": 2.67e7}
{"gene knocked down": "CG9447", "DRSC id": "DRSC05008", "calcium entry signal, replicate 1": 2.33e7, "calcium entry signal, replicate 2": 2.95e7, "resting calcium signal, replicate 1": 1.18e7, "resting calcium signal, replicate 2": 1.23e7}
{"gene knocked down": "CG8097", "DRSC id": "DRSC20079", "calcium entry signal, replicate 1": 2.59e7, "calcium entry signal, replicate 2": 3.36e7, "resting calcium signal, replicate 1": 1.38e7, "resting calcium signal, replicate 2": 1.53e7}
{"gene knocked down": "Khc-73", "DRSC id": "DRSC07449", "calcium entry signal, replicate 1": 3.09e7, "calcium entry signal, replicate 2": 3.05e7, "resting calcium signal, replicate 1": 1.36e7, "resting calcium signal, replicate 2": 1.44e7}

The list goes on, starting with the last 3 of the part before.
{"gene knocked down": "CG9447", "DRSC id": "DRSC05008", "calcium entry signal, replicate 1": 2.33e7, "calcium entry signal, replicate 2": 2.95e7, "resting calcium signal, replicate 1": 1.18e7, "resting calcium signal, replicate 2": 1.23e7}
{"gene knocked down": "CG8097", "DRSC id": "DRSC20079", "calcium entry signal, replicate 1": 2.59e7, "calcium entry signal, replicate 2": 3.36e7, "resting calcium signal, replicate 1": 1.38e7, "resting calcium signal, replicate 2": 1.53e7}
{"gene knocked down": "Khc-73", "DRSC id": "DRSC07449", "calcium entry signal, replicate 1": 3.09e7, "calcium entry signal, replicate 2": 3.05e7, "resting calcium signal, replicate 1": 1.36e7, "resting calcium signal, replicate 2": 1.44e7}
{"gene knocked down": "CG5188", "DRSC id": "DRSC02826", "calcium entry signal, replicate 1": 3.05e7, "calcium entry signal, replicate 2": 5.21e7, "resting calcium signal, replicate 1": 1.57e7, "resting calcium signal, replicate 2": 2.09e7}
{"gene knocked down": "CG15047", "DRSC id": "DRSC19623", "calcium entry signal, replicate 1": 4.05e7, "calcium entry signal, replicate 2": 3.91e7, "resting calcium signal, replicate 1": 2.02e7, "resting calcium signal, replicate 2": 1.74e7}
{"gene knocked down": "CG15047", "DRSC id": "DRSC21443", "calcium entry signal, replicate 1": 3.73e7, "calcium entry signal, replicate 2": 3.07e7, "resting calcium signal, replicate 1": 2.16e7, "resting calcium signal, replicate 2": 1.52e7}
{"gene knocked down": "stv", "DRSC id": "DRSC09796", "calcium entry signal, replicate 1": 2.80e7, "calcium entry signal, replicate 2": 3.49e7, "resting calcium signal, replicate 1": 1.31e7, "resting calcium signal, replicate 2": 2.13e7}
{"gene knocked down": "stv", "DRSC id": "DRSC10111", "calcium entry signal, replicate 1": 3.72e7, "calcium entry signal, replicate 2": 4.86e7, "resting calcium signal, replicate 1": 1.88e7, "resting calcium signal, replicate 2": 2.12e7}
{"gene knocked down": "CG10300", "DRSC id": "DRSC14225", "calcium entry signal, replicate 1": 4.29e7, "calcium entry signal, replicate 2": 4.37e7, "resting calcium signal, replicate 1": 2.18e7, "resting calcium signal, replicate 2": 1.99e7}
{"gene knocked down": "Tdh", "DRSC id": "DRSC11788", "calcium entry signal, replicate 1": 3.98e7, "calcium entry signal, replicate 2": 4.80e7, "resting calcium signal, replicate 1": 1.66e7, "resting calcium signal, replicate 2": 2.96e7}
